PubChem BioAssay AID1259308, NCATS, 2017

Aim: 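Knock-downs that increase output of a recombinant reporter protein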 (primary screen)
Cell system: human HEK293 embryonic kidney cells stably expressing firefly luciferase (HEK-CMV-Luc2-Hygro)
Reagents: single siRNA against human genes, 0.8 pmol siRNA per well
Time to read-out: 72 h
Read-out: 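Reporter luminescence and viable-cell signal on separate replicate plates, given as percent of non-targeting control and median/MAD z-scores, plus per-cell luciferase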
Scale: total luciferase, z-score: higher = more reporter protein produced
Active means: 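Active when the median/MAD z-score for overall luciferase is greater than 3; a gene was taken forward for validation with new siRNAs if at least two of its three siRNAs passed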
Meaning of the calls: active = raised luciferase; inactive = no rise
Here is an unselected part of about 59,000 reagents. About 1,510 of all reagents (2.6%) count as active. 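Calls use total luciferase alone and ignore viability, so some active siRNAs may act by altering cell number.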 Unmarked entries are inactive. The numbers tell different reagents against one gene apart. Further read-outs or replicates are left out here.

{"gene knocked down":"LETR1 (lymphatic endothelial transcriptional regulator lncRNA 1)","reagent":1,"total luciferase, z-score":-1.62}
{"gene knocked down":"LETR1 (lymphatic endothelial transcriptional regulator lncRNA 1)","reagent":2,"total luciferase, z-score":-0.232}
{"gene knocked down":"LETR1 (lymphatic endothelial transcriptional regulator lncRNA 1)","reagent":3,"total luciferase, z-score":0.429}
{"gene knocked down":"TAS2R1 (taste 2 receptor member 1)","reagent":1,"total luciferase, z-score":0.996}
{"gene knocked down":"TAS2R1 (taste 2 receptor member 1)","reagent":2,"total luciferase, z-score":-1.2}
{"gene knocked down":"TAS2R1 (taste 2 receptor member 1)","reagent":3,"total luciferase, z-score":-0.358}
{"gene knocked down":"PSD3 (pleckstrin and Sec7 domain containing 3)","reagent":1,"total luciferase, z-score":-0.0508}
{"gene knocked down":"PSD3 (pleckstrin and Sec7 domain containing 3)","reagent":2,"total luciferase, z-score":0.496}
{"gene knocked down":"PSD3 (pleckstrin and Sec7 domain containing 3)","reagent":3,"total luciferase, z-score":-0.78}
{"gene knocked down":"GBGT1","reagent":1,"total luciferase, z-score":-1.35}
{"gene knocked down":"GBGT1","reagent":2,"total luciferase, z-score":-0.582}
{"gene knocked down":"GBGT1","reagent":3,"total luciferase, z-score":0.982}
{"gene knocked down":"RPL26P32 (ribosomal protein L26 pseudogene 32)","reagent":1,"total luciferase, z-score":-3.15}
{"gene knocked down":"RPL26P32 (ribosomal protein L26 pseudogene 32)","reagent":2,"total luciferase, z-score":-1.69}
{"gene knocked down":"RPL26P32 (ribosomal protein L26 pseudogene 32)","reagent":3,"total luciferase, z-score":-2.75}
{"gene knocked down":"TRIM60 (tripartite motif containing 60)","reagent":1,"total luciferase, z-score":-0.337}
{"gene knocked down":"TRIM60 (tripartite motif containing 60)","reagent":2,"total luciferase, z-score":0.23}
{"gene knocked down":"TRIM60 (tripartite motif containing 60)","reagent":3,"total luciferase, z-score":0.0329}
{"gene knocked down":"GM2A (ganglioside GM2 activator)","reagent":1,"total luciferase, z-score":-0.462}
{"gene knocked down":"GM2A (ganglioside GM2 activator)","reagent":2,"total luciferase, z-score":-0.98}
{"gene knocked down":"GM2A (ganglioside GM2 activator)","reagent":3,"total luciferase, z-score":-2.02}
{"gene knocked down":"IFNA10 (interferon alpha 10)","reagent":1,"total luciferase, z-score":1.19}
{"gene knocked down":"IFNA10 (interferon alpha 10)","reagent":2,"total luciferase, z-score":1.01}
{"gene knocked down":"IFNA10 (interferon alpha 10)","reagent":3,"total luciferase, z-score":1.39}
{"gene knocked down":"GRIK3 (glutamate ionotropic receptor kainate type subunit 3)","reagent":1,"total luciferase, z-score":-0.333}
{"gene knocked down":"GRIK3 (glutamate ionotropic receptor kainate type subunit 3)","reagent":2,"total luciferase, z-score":0.165}
{"gene knocked down":"GRIK3 (glutamate ionotropic receptor kainate type subunit 3)","reagent":3,"total luciferase, z-score":-0.371}
{"gene knocked down":"TRMT9B (tRNA methyltransferase 9B (putative))","reagent":1,"total luciferase, z-score":0.497}
{"gene knocked down":"TRMT9B (tRNA methyltransferase 9B (putative))","reagent":2,"total luciferase, z-score":-0.457}
{"gene knocked down":"TRMT9B (tRNA methyltransferase 9B (putative))","reagent":3,"total luciferase, z-score":1.5}
{"gene knocked down":"HASPIN (histone H3 associated protein kinase)","reagent":1,"total luciferase, z-score":1.84}
{"gene knocked down":"HASPIN (histone H3 associated protein kinase)","reagent":2,"total luciferase, z-score":0.869}
{"gene knocked down":"HASPIN (histone H3 associated protein kinase)","reagent":3,"total luciferase, z-score":-0.552}
{"gene knocked down":"PARVB (parvin beta)","reagent":1,"total luciferase, z-score":-2.06}
{"gene knocked down":"PARVB (parvin beta)","reagent":2,"total luciferase, z-score":0.843}
{"gene knocked down":"PARVB (parvin beta)","reagent":3,"total luciferase, z-score":-0.675}
{"gene knocked down":"ADORA2A (adenosine A2a receptor)","reagent":1,"total luciferase, z-score":"3.52 (active)"}
{"gene knocked down":"ADORA2A (adenosine A2a receptor)","reagent":2,"total luciferase, z-score":2.61}
{"gene knocked down":"ADORA2A (adenosine A2a receptor)","reagent":3,"total luciferase, z-score":0.225}
{"gene knocked down":"SEMA4D (semaphorin 4D)","reagent":1,"total luciferase, z-score":-0.217}
{"gene knocked down":"SEMA4D (semaphorin 4D)","reagent":2,"total luciferase, z-score":-0.0572}
{"gene knocked down":"SEMA4D (semaphorin 4D)","reagent":3,"total luciferase, z-score":-0.25}
{"gene knocked down":"SEMA4D (semaphorin 4D)","reagent":4,"total luciferase, z-score":-1.29}
{"gene knocked down":"SEMA4D (semaphorin 4D)","reagent":5,"total luciferase, z-score":1.43}
{"gene knocked down":"SEMA4D (semaphorin 4D)","reagent":6,"total luciferase, z-score":-0.506}
